Columns and labels:
[1] = Optimization study of extraction buffer: NAD+ and NMN quantified by LC-MS/MS in blood or blood cells; design: species or system rat; conditions: for Extraction efficiency, Blood cells, Evaluation / Concentration, Blood cells, Mean / Extraction efficiency, Blood cells, Mean: rat blood cells; for Extraction efficiency, Blood cells, Mean / Extraction efficiency, Blood, Mean: relative to 100:0 as 100%; for Extraction efficiency, Blood, Evaluation / Concentration, Blood, Mean / Extraction efficiency, Blood, Mean: rat whole blood
[2] = Extraction efficiency of NAD+ and NMN from filter paper (with vs without filter paper); design: species or system human; conditions: for Extraction efficiency (mean): concentration with filter paper / without filter paper
[3] = Room temperature storage stability of NAD+ and NMN in blood spotted on filter paper (DBS, LC-MS/MS); type: physicochemical, human
Method: (§1) A filter paper, to which blood derived from a test subject is added (i.e., corresponding to a filter paper in Step 1 of the present invention), was searched for the optimal one for quantifying NAD+ and NMN when the filter paper with added blood derived from the test subject is stored at room temperature for a certain period of time.
A part of the blood spotted-filter paper prepared in Example 2 was sealed in a moisture absorption standard pouch (Moisture absorption-kun (registered trademark)/Maruto Sangyo Co., Ltd.) and then stored at room temperature. After storage at room temperature for 2 days, 1 week (7 days), or 2 weeks (15 days), the blood-spotted areas were cut out and collected in a 2 mL microtube. After performing the same treatment as in Example 2, measurement by LC-MS/MS was performed under the same conditions as in Example 2.

[4] = Chilled storage stability of NAD+ and NMN in blood spotted on filter paper (DBS, LC-MS/MS); type: physicochemical, human
Method: as §1, with “in the refrigerator” for “at room temperature”
From 5 subjects (adult men and women) per test, approximately 120 μL of blood (amount of 2 collection containers of the kit) was sampled by self-collection using an Micro Blood Collection Kit (Micro Blood Science Co., Ltd.), and was left to stand on ice until sample processing. The subjects were fasted on the morning of the sampling day, and samplings were performed around 9:00 am. The test was performed four times in total, with a total of 19 people performing evaluations, excluding one person due to insufficient sample blood volume.
The sampled blood was collected into 1.5 mL microtubes for each subject and mixed by gentle pipetting. Four types of filter papers (Whatman FTA DMPK-A Card/GE healthcare, QIAcard FTA DMPK-B Card/QIAGEN, QIAcard FTA DMPK-C Card/QIAGEN, Whatman 903 Protein saver card/Cytiva) were each spotted with 5 μL of blood (dropped/added) at multiple areas, sealed in a moisture absorption standard pouch (Moisture absorption-kun (registered trademark)/Maruto Sangyo Co., Ltd.), and stored in the refrigerator. Next, after chilled storing the blood-spotted filter paper for 2 days, 2 weeks (14 days or 15 days), or 1 month (30 days), the blood-spotted areas were cut out and collected in a 2 mL microtube. After adding 300 μL of a mixed aqueous solution of internal standard substances (NAD+-d4 and NMN-d4/Toronto Research Chemicals, Inc.) thereto and stirring using a vortex mixer, the mixture was mixed with a micromixer (TOMY MICRO TUBE MIXER MT-400, stirring speed 5) for 30 minutes at room temperature. The blood extract solution was dispensed by each 150 μL portion into a microtube, 300 μL of acetonitrile was added thereto, and the mixture was stirred using a vortex mixer, followed by centrifugation (24,250×g, 10 minutes, 4° C.). After centrifugation, 40 μL of the supernatant was dispensed into a vial and measured by LC-MS/MS.
In contrast, as a sample for initial values, 5 μL of blood was collected into a 2 mL microtube (no spotted filter paper), and 300 μL of a mixed aqueous solution of internal standard substances (NAD-d4 and NMN-d4/Toronto Research Chemicals, Inc.) was added thereto and stirred using a vortex mixer, and then the mixture was mixed using a micromixer (TOMY MICRO TUBE MIXER MT-400, stirring speed 5) for 30 minutes at room temperature. The blood extract solution was dispensed by each 150 μL portion into a microtube, 300 μL of acetonitrile was added thereto, and the mixture was stirred using a vortex mixer, followed by centrifugation (24,250×g, 10 minutes, 4° C.). After centrifugation, 40 μL of the supernatant was dispensed into a vial and measured by LC-MS/MS.

[5] = extraction buffer water:acetonitrile 0:100
[6] = extraction buffer water:acetonitrile 20:80
[7] = extraction buffer water:acetonitrile 40:60
[8] = extraction buffer water:acetonitrile 60:40 (NAD+ line prints 40:40)
[9] = extraction buffer water:acetonitrile 80:20
[10] = extraction buffer water:acetonitrile 100:0

## NC(=O)c1ccc[n+]([C@@H]2O[C@H](COP(=O)([O-])O)[C@@H](O)[C@H]2O)c1 [NMN, nicotinamide mononucleotide]
[1]; [5]
  Extraction efficiency, Blood cells, Evaluation: Poor (Poor (<40%))
  Extraction efficiency, Blood, Evaluation: Poor (Poor (<40%))
[1]; [6]
  Extraction efficiency, Blood cells, Evaluation: Poor (Poor (<40%))
  Extraction efficiency, Blood, Evaluation: Poor (Poor (<40%))
[1]; [7]
  Concentration, Blood cells, Mean: 9.96 µmol/L
  Extraction efficiency, Blood cells, Evaluation: Excellent (Excellent (≥80%))
  Extraction efficiency, Blood cells, Mean: 83.0%
  Concentration, Blood, Mean: 5.54 µmol/L
  Extraction efficiency, Blood, Evaluation: Excellent (Excellent (≥80%))
  Extraction efficiency, Blood, Mean: 85.4%
[1]; [8]
  Concentration, Blood cells, Mean: 12.58 µmol/L
  Extraction efficiency, Blood cells, Evaluation: Excellent (Excellent (≥80%))
  Extraction efficiency, Blood cells, Mean: 104.9%
  Concentration, Blood, Mean: 5.88 µmol/L
  Extraction efficiency, Blood, Evaluation: Excellent (Excellent (≥80%))
  Extraction efficiency, Blood, Mean: 91.1%
[1]; [9]
  Concentration, Blood cells, Mean: 12.23 µmol/L
  Extraction efficiency, Blood cells, Evaluation: Excellent (Excellent (≥80%))
  Extraction efficiency, Blood cells, Mean: 101.7%
  Concentration, Blood, Mean: 6.25 µmol/L
  Extraction efficiency, Blood, Evaluation: Excellent (Excellent (≥80%))
  Extraction efficiency, Blood, Mean: 96.5%
[1]; [10]
  Concentration, Blood cells, Mean: 12.03 µmol/L
  Extraction efficiency, Blood cells, Evaluation: Excellent (Excellent (≥80%))
  Concentration, Blood, Mean: 6.45 µmol/L
  Extraction efficiency, Blood, Evaluation: Excellent (Excellent (≥80%))
[2]; 903 card
  Extraction efficiency, Evaluation: Poor (Poor (<75%))
  Extraction efficiency (mean): 73.2%
[2]; DMPK-A card
  Extraction efficiency, Evaluation: Excellent: (Excellent (≥90%))
  Extraction efficiency (mean): 125.6%
[2]; DMPK-B card
  Extraction efficiency, Evaluation: Good: (Good (≥85%))
  Extraction efficiency (mean): 87.7%
[2]; DMPK-C card
  Extraction efficiency, Evaluation: Good (Good (≥85%))
  Extraction efficiency (mean): 87.9%
[2]; human blood on 903 card, no storage
  Concentration (mean): 1.20 µM
[2]; human blood on DMPK-A card, no storage
  Concentration (mean): 2.01 µM
[2]; human blood on DMPK-B card, no storage
  Concentration (mean): 1.62 µM
[2]; human blood on DMPK-C card, no storage
  Concentration (mean): 1.37 µM
[2]; human blood, filter paper: none (Table 16)
  Concentration (mean): 1.96 µM
[3]; human blood on 903 card, room temperature storage for 2 weeks
  Concentration (mean): unable to be quantified and BLQ
[3]; human blood on 903 card, room temperature storage for 2 days
  Concentration (mean): 1.38 µM
[3]; human blood on DMPK-A card, room temperature storage for 2 weeks
  Concentration (mean): 2.09 µM
[3]; human blood on DMPK-A card, room temperature storage for 2 days
  Concentration (mean): 1.95 µM
[3]; human blood on DMPK-B card, room temperature storage for 1 week
  Concentration (mean): 1.39 µM
[3]; human blood on DMPK-B card, room temperature storage for 2 weeks
  Concentration (mean): 1.17 µM
[3]; human blood on DMPK-B card, room temperature storage for 2 days
  Concentration (mean): 1.71 µM
[3]; human blood on DMPK-C card, room temperature storage for 2 weeks
  Concentration (mean): unable to be quantified and BLQ
[3]; human blood on DMPK-C card, room temperature storage for 2 days
  Concentration (mean): unable to be quantified and BLQ
[3]; human blood, filter paper: none, storage for 0 days (initial value, Table 12)
  Concentration (mean): 1.93 µM
[4]; human blood on 903 card, chilled storage for 1 month
  Concentration (mean): 1.02 µM
[4]; human blood on 903 card, chilled storage for 2 weeks
  Concentration (mean): 1.04 µM
[4]; human blood on 903 card, chilled storage for 2 days
  Concentration (mean): 1.10 µM
[4]; human blood on DMPK-A card, chilled storage for 1 month
  Concentration (mean): 1.38 µM
[4]; human blood on DMPK-A card, chilled storage for 2 weeks
  Concentration (mean): 1.37 µM
[4]; human blood on DMPK-A card, chilled storage for 2 days
  Concentration (mean): 1.10 µM
[4]; human blood on DMPK-B card, chilled storage for 1 month
  Concentration (mean): 1.61 µM
[4]; human blood on DMPK-B card, chilled storage for 2 weeks
  Concentration (mean): 1.62 µM
[4]; human blood on DMPK-B card, chilled storage for 2 days
  Concentration (mean): 1.41 µM
[4]; human blood on DMPK-C card, chilled storage for 1 month
  Concentration (mean): BLQ
[4]; human blood on DMPK-C card, chilled storage for 2 weeks
  Concentration (mean): 0.91 µM
[4]; human blood on DMPK-C card, chilled storage for 2 days
  Concentration (mean): 1.04 µM
[4]; human blood, filter paper: none, storage for 0 days (initial value, Table 8)
  Concentration (mean): 1.85 µM

From patent publication US20250085283A1, “METHOD FOR QUANTIFYING NICOTINAMIDE ADENINE DINUCLEOTIDE (NAD+) OR NICOTINAMIDE MONONUCLEOTIDE (NMN), AND KIT AND FILTER PAPER FOR PERFORMING THE METHOD” (Teijin Limited, priority 2022, published 2025)
